# In PubChem BioAssay AID1487 (National Center for Advancing Translational Sciences (NCATS), 2009):
# Values joined by “and” are separate entries in the source; they are usually repeats but may differ in a detail not shown here. Equal values may be shown once. The list shows a part of the results. Shown are side measurements of this screen, not its main read-out; they come without a call. Compounds called inactive in the main read-out are mostly missing here. The note in brackets gives the kind of curve behind each potency; many fits are weak.
# Experiment: qHTS Assay for Modulators of Lamin A Splicing
# Conditions: HeLa LMNA splicing GFP/RFP minigene ratio, 48 h
# Procedure, shortened: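 Read-out is the ratio of GFP to DsRed2 object intensity, acquired by 488 nm laser-scanning cytometry on HeLa lamin A-EGFP minigene reporter cells. Compound incubation 48 hrs at 37 °C in Opti-MEM with 2% FBS; DMSO 0.5% final.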
# [1] = measured here: RFP viability control channel
# [2] = measured here: GFP splicing reporter channel
smiles,measurement,setting,value
C=CCn1c(SCC(=O)c2cccs2)nc2sc(C)c(C)c2c1=O,AC50,[1],"35.5 µM [rising, single point]"
CC(C)(C)n1nnnc1C(c1ccc(C(F)(F)F)cc1)N(Cc1ccc(F)cc1)Cc1ccco1 (stereo unspecified),AC50,[1],"31.6 µM [rising, single point]"
COc1cc(OC)c(N(C)C(=O)Cn2ncc3c([nH]c4ccccc43)c2=O)cc1Cl,AC50,[2],"35.5 µM [falling, partial curve]"
CCOC(=O)C1(CCCCCCOc2ccc(Cl)cc2)CO1 (stereo unspecified),AC50,[2],"11.2 µM [falling, single point]"
same,AC50,[1],"8.91 µM [falling, partial curve, poor fit]"
Cc1onc(-c2c(F)cccc2Cl)c1C(=O)N[C@@H]1C(=O)N2[C@H]1SC(C)(C)[C@H]2C(=O)O,AC50,[2],"0.02 µM [falling, full curve]"
CC(=O)N(C)c1ccc(OCC(O)Cn2c3ccc(Cl)cc3c3cc(Cl)ccc32)cc1 (stereo unspecified),AC50,[2],"2.82 µM [falling, single point]"
same,AC50,[1],"2.82 µM [falling, single point]"
CCC(C(=O)OCC(=O)Nc1cccc(C(C)=O)c1)c1ccccc1 (stereo unspecified),AC50,[1],"12.6 µM [rising, partial curve, poor fit]"
COc1ccc(-n2nnc3c(SCC(=O)NCc4ccco4)ncnc32)cc1,AC50,[1],"14.1 µM [falling, single point]"
Cc1n[nH]c(C)c1CCOc1ccc(C(C)C)cc1,AC50,[2],"0.631 µM [rising, full curve]"
same,AC50,[1],"11.2 µM [rising, partial curve]"
O=C(/C=C\c1ccccc1)Oc1cccc2cccnc12,AC50,[1],"31.6 µM [falling, single point]"
Nc1nc2ccc(OC(F)(F)F)cc2s1,AC50,[2],"891 nM [falling, partial curve] and 17.8 µM [rising, single point] and 7.08 µM [falling, full curve, poor fit]"
same,AC50,[1],"12.6 µM [falling, partial curve] [middle of 4 runs]"
O=C(CC1C(=O)NCCN1Cc1ccc(F)c(F)c1)NCCn1cccn1 (stereo unspecified),AC50,[1],"22.4 µM [falling, partial curve, poor fit]"
O=C(C1CCCN(S(=O)(=O)Cc2ccccc2)C1)N1CCc2ccccc21 (stereo unspecified),AC50,[2],"35.5 µM [rising, single point]"
same,AC50,[1],"35.5 µM [rising, single point]"
Cc1csc2nc(-c3cccc(NC(=O)c4ccccc4Cl)c3)cn12,AC50,[2],"35.5 µM [falling, single point]"
CCC(=O)N1CCN(c2nc(-c3ccc(Cl)cc3)cs2)CC1,AC50,[2],"35.5 µM [rising, single point]"
same,AC50,[1],"35.5 µM [rising, single point]"
Cc1ccc(O)c(C(=O)c2cnc3onc(-c4ccc(F)cc4)c3c2)c1,AC50,[2],"3.16 µM [rising, full curve]"
same,AC50,[1],"11.2 µM [rising, partial curve]"
Cn1cc(C(=O)N/N=C/C(Br)=C\c2ccccc2)ccc1=O,AC50,[2],"25.1 µM [falling, single point]"
same,AC50,[1],"35.5 µM [falling, single point]"
O=C(NC1CCCCCC1)C1CCN(C(=O)N2CCOc3ccccc32)CC1,AC50,[1],"0.794 µM [falling, partial curve]"
COc1ccc(C(=O)NCC(C)(C)SCc2c(C)cc(C)cc2C)cc1,AC50,[2],"12.6 µM [falling, single point]"
same,AC50,[1],"11.2 µM [falling, single point]"
Cc1ccc(C(c2sc3nc(C)nn3c2O)N2CCN(c3ccc(F)cc3)CC2)cc1 (stereo unspecified),AC50,[1],"35.5 µM [rising, single point]"
CC(C)CN1CCN(Cc2ccc(C#CC(C)(C)O)cc2)CC1CCO (stereo unspecified),AC50,[2],"35.5 µM [falling, single point]"
c1csc(CNc2ccnc(-c3ccc4c(c3)OCO4)n2)c1,AC50,[1],"0.316 µM [falling, full curve, poor fit]"
CC(C)(C)c1ccc(-c2nc(C#N)c(NCc3cccnc3)o2)cc1,AC50,[2],"35.5 µM [rising, single point]"
same,AC50,[1],"15.8 µM [rising, single point]"
N#Cc1c(NC(=O)c2cnccn2)sc2c1CCCC2,AC50,[2],"28.2 µM [rising, single point]"
same,AC50,[1],"22.4 µM [rising, single point]"
CCCc1nc([N+](=O)[O-])c(S(=O)(=O)c2ccccc2)n1CC(C)C,AC50,[2],"3.55 µM [rising, single point]"
same,AC50,[1],"12.6 µM [rising, partial curve]"
CCc1nnc(NC(=O)c2cc(S(=O)(=O)N3CCN(c4ccccc4)CC3)ccc2Cl)s1,AC50,[2],"14.1 µM [rising, single point]"
same,AC50,[1],"15.8 µM [rising, single point]"
O=C(CS(=O)(=O)c1ccccc1)Nc1ccc(Br)cn1,AC50,[2],"3.55 µM [falling, partial curve]"
same,AC50,[1],"5.01 µM [falling, partial curve, poor fit]"
COc1ccc(C(=O)/C(C#N)=N/Nc2ccccc2[N+](=O)[O-])cc1,AC50,[2],"2 µM [rising, full curve, poor fit]"
same,AC50,[1],"2.51 µM [rising, full curve]"
COc1cc(S(=O)(=O)N2CCN(c3ccc(F)cc3)CC2)ccc1Cl,AC50,[2],"12.6 µM [rising, single point]"
same,AC50,[1],"28.2 µM [rising, single point]"
COc1ccc2c(c1)c(CC(=O)O)c(C)n2C(=O)c1ccc(Cl)cc1,AC50,[2],"0.00501 µM [falling, full curve, poor fit]"
same,AC50,[1],"1.58 µM [rising, full curve] and 11.2 µM [rising, single point]"
CCOC(=O)c1c(-c2ccccc2)csc1NC(=O)/C(C#N)=C/c1ccc(O)c(OC)c1,AC50,[2],"25.1 µM [falling, partial curve]"
same,AC50,[1],"20 µM [falling, single point]"
C=CCn1c(=O)c2c(C)c(C)sc2n2c(Nc3ccccc3)nnc12,AC50,[2],"2 µM [rising, partial curve]"
same,AC50,[1],"1.58 µM [rising, partial curve, poor fit]"

# Quoted from the results shown for reference:
smiles,measurement,setting,value
Cc1ccc(C(c2sc3nc(C)nn3c2O)N2CCN(c3ccc(F)cc3)CC2)cc1 (stereo unspecified),AC50,[1],"35.5 µM [rising, single point]"
CC(C)CN1CCN(Cc2ccc(C#CC(C)(C)O)cc2)CC1CCO (stereo unspecified),AC50,[2],"35.5 µM [falling, single point]"
c1csc(CNc2ccnc(-c3ccc4c(c3)OCO4)n2)c1,AC50,[1],"0.316 µM [falling, full curve, poor fit]"
CC(C)(C)c1ccc(-c2nc(C#N)c(NCc3cccnc3)o2)cc1,AC50,[2],"35.5 µM [rising, single point]"
